For three substances, binding results are on record in article doi:10.1101/2022.03.11.483896.

Amino acid sequences for entries named in this document (tags omitted). Residues count along the entry.
UniProt P04150: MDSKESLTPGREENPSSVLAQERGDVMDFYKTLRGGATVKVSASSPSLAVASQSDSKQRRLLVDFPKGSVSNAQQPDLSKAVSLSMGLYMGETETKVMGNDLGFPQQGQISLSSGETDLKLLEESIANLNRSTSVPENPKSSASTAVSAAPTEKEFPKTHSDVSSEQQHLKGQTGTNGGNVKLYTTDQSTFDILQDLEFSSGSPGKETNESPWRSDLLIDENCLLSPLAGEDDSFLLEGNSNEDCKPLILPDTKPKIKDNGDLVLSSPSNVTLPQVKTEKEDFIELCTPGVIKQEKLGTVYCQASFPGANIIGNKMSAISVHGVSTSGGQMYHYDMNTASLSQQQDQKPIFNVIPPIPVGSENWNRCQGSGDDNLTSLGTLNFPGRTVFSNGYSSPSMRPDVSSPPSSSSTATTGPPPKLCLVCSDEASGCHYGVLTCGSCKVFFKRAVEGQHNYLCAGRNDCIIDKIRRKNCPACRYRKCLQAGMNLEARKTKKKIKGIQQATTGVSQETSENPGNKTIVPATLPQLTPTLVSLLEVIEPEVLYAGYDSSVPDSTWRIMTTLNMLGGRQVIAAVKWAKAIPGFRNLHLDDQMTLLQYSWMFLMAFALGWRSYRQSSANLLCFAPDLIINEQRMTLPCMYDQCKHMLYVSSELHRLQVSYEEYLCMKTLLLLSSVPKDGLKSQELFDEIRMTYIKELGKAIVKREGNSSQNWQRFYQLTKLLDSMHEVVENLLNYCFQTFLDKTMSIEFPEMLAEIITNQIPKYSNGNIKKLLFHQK
UniProt P01009, residues 25-418: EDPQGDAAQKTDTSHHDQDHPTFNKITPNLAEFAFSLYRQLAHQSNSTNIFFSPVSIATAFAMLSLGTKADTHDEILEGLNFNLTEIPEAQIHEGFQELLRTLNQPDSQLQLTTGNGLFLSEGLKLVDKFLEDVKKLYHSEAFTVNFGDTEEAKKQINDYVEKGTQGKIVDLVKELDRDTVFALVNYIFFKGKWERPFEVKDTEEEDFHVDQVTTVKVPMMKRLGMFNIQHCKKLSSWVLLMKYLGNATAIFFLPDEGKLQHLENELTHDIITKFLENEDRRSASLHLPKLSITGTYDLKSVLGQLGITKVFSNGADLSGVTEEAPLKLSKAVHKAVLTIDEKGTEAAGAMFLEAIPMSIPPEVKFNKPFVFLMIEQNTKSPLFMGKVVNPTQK

Test in all cases: co-IP
The target in test [1] is Glucocorticoid receptor (human (endogenous in THP-1)) (UniProt P04150).
The target is the same in test [2]. This is another data set of the same source.
For test [3], the target named is Glucocorticoid receptor (monocyte-derived macrophages) (human (endogenous in MDM)) (UniProt P04150).
In test [4] the target is Alpha-1-antitrypsin (human (endogenous in THP-1)) (UniProt P01009).

Where two headings read alike, the source gives them in different places. No constants are given. Whether binding was seen depends on the method and setting. In cells and extracts the contact can be indirect. Some binding calls cover weakened binding; strength is not graded here.

Regarding “Alpha-1-antitrypsin (from UniProt P01009 25-418)”, the binding result in test [1] and in test [2] was “binds” each time.

“Alpha-1-antitrypsin (monocyte-derived macrophages, PiMM) (from UniProt P01009 25-418)”: in test [3], the binding result is reported as “binds”.

For “Glucocorticoid receptor (from UniProt P04150 1-777)”, in test [4], the binding result is listed as “binds”.
